Measurements published in the supplement of paper PMC10849652.
The list shows a part of the results.

Sequences of proteins named here, by UniProt entry; tags and fusion partners are left off. A change or cut given only in a name is not applied to a line headed by its entry.
UniProt Q92766: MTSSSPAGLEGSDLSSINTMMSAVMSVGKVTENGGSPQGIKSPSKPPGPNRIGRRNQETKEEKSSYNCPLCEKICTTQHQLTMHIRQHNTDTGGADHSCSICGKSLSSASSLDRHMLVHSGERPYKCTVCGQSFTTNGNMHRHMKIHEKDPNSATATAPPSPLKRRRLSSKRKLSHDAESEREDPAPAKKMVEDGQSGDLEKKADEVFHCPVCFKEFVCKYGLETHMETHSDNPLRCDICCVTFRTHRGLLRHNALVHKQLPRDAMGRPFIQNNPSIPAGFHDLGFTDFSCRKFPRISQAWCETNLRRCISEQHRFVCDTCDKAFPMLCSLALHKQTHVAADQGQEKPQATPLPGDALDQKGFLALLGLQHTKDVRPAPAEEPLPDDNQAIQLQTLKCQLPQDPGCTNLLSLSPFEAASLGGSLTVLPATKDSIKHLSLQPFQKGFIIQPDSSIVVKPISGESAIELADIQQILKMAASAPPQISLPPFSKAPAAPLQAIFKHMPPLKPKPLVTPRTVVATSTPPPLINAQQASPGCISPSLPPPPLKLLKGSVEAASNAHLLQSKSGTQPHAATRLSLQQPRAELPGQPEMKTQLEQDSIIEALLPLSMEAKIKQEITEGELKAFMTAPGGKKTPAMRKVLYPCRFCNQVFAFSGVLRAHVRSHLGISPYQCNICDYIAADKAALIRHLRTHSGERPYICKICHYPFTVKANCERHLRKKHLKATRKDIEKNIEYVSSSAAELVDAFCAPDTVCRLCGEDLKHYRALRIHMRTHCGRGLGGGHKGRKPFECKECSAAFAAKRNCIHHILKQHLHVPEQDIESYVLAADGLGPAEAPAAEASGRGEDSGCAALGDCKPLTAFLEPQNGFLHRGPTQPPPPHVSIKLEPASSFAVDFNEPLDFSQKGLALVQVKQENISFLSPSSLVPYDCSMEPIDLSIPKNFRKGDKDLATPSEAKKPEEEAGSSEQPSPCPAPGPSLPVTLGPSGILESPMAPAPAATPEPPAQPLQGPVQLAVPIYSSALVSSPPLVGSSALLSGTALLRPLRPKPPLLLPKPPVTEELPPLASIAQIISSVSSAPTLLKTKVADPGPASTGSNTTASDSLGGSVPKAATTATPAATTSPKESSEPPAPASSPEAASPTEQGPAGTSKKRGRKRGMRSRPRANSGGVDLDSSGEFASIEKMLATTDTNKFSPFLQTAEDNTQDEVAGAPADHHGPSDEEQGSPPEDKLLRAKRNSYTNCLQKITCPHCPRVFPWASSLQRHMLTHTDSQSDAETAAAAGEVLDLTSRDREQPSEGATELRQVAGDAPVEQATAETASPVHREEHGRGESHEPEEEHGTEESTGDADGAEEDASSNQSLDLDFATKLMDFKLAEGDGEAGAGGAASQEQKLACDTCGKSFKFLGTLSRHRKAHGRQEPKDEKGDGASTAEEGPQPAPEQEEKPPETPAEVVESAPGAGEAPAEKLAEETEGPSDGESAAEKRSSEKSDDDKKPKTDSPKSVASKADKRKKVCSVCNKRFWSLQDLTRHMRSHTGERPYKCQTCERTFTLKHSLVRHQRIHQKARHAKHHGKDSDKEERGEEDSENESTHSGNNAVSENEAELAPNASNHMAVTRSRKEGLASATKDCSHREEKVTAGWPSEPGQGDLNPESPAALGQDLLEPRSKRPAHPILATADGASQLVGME
UniProt Q92901: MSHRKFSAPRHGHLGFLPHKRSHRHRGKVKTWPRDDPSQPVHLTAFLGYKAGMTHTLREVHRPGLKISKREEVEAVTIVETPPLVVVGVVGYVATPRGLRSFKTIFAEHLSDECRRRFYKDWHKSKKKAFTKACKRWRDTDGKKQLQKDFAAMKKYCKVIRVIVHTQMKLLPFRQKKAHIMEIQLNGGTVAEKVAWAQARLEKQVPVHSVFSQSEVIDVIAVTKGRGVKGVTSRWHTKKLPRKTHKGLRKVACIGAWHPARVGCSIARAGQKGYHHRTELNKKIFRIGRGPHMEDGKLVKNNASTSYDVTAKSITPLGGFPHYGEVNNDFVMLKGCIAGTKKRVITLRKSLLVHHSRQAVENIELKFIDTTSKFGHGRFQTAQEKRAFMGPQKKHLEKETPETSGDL
UniProt Q9HB90, whole entry, looked up: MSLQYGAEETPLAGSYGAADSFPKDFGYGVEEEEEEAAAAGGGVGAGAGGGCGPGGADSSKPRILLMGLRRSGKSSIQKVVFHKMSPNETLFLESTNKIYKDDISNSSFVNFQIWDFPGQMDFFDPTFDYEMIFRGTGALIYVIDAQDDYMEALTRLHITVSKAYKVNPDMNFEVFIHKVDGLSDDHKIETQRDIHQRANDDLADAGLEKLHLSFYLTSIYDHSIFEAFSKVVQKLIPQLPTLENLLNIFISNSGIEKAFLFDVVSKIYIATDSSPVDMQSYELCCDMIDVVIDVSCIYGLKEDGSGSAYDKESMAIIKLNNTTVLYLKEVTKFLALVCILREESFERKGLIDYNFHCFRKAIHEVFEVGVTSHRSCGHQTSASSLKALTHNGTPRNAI
UniProt P56182: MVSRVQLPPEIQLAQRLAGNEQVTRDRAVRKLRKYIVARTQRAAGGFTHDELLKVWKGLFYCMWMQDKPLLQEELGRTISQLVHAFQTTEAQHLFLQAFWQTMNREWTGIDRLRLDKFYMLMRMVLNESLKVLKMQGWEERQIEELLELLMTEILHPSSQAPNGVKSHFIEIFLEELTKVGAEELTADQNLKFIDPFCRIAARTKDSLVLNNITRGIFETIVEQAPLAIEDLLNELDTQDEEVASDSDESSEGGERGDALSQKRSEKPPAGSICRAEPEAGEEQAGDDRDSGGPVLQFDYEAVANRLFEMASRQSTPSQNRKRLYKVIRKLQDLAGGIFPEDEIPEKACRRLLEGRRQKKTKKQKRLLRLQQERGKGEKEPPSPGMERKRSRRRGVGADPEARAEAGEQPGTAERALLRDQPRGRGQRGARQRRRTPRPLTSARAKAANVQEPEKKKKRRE
UniProt Q6P087: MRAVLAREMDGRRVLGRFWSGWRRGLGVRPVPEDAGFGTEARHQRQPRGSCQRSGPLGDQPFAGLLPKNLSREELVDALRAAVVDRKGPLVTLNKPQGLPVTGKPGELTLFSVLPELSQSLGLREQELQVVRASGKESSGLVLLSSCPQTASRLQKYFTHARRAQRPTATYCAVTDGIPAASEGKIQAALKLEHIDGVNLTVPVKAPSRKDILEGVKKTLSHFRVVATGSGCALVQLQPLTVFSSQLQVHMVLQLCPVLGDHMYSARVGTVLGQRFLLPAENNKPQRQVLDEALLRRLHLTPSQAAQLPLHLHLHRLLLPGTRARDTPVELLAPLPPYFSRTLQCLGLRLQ
UniProt Q86UA6: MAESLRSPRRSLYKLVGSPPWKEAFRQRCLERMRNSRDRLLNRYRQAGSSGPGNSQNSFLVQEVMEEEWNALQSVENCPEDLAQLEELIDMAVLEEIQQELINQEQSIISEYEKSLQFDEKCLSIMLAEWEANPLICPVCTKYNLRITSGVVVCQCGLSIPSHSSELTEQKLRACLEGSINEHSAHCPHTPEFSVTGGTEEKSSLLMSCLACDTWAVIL
UniProt Q5VT52: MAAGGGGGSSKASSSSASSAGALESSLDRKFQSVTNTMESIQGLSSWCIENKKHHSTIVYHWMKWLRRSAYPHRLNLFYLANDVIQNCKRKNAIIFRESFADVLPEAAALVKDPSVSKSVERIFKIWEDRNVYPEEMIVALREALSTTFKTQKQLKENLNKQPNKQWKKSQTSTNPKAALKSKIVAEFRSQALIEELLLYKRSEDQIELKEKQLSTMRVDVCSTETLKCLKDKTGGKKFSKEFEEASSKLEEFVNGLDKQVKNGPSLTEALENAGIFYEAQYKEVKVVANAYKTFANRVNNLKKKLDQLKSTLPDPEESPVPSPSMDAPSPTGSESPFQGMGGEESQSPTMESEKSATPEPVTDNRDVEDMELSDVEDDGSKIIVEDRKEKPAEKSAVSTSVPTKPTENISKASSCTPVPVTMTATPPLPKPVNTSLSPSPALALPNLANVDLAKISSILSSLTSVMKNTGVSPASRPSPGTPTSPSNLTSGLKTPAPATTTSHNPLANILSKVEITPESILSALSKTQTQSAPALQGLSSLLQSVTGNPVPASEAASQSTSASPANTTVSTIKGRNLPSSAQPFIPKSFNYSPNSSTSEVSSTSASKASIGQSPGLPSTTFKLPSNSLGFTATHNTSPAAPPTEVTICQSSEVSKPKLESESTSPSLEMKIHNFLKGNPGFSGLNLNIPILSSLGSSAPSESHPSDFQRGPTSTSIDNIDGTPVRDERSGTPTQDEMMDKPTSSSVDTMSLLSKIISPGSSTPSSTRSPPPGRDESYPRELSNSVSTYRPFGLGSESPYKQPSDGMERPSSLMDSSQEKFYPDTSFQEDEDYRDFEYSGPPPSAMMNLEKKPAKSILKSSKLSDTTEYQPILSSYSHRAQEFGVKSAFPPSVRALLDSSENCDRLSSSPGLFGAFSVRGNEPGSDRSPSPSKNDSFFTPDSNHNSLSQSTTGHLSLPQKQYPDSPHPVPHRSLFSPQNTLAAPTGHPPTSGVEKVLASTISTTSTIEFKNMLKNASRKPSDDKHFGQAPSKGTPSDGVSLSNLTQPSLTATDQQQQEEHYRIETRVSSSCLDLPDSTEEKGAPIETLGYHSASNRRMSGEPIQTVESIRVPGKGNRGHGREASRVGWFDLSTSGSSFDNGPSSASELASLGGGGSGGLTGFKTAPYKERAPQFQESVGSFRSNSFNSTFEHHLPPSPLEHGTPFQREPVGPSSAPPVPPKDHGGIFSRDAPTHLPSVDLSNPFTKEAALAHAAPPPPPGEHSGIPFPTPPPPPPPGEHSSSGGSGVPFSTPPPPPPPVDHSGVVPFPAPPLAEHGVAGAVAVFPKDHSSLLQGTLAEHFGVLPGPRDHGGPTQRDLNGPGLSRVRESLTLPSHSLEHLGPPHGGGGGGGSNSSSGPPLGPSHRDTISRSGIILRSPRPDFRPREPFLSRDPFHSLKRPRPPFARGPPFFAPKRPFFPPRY
UniProt Q9NYV6: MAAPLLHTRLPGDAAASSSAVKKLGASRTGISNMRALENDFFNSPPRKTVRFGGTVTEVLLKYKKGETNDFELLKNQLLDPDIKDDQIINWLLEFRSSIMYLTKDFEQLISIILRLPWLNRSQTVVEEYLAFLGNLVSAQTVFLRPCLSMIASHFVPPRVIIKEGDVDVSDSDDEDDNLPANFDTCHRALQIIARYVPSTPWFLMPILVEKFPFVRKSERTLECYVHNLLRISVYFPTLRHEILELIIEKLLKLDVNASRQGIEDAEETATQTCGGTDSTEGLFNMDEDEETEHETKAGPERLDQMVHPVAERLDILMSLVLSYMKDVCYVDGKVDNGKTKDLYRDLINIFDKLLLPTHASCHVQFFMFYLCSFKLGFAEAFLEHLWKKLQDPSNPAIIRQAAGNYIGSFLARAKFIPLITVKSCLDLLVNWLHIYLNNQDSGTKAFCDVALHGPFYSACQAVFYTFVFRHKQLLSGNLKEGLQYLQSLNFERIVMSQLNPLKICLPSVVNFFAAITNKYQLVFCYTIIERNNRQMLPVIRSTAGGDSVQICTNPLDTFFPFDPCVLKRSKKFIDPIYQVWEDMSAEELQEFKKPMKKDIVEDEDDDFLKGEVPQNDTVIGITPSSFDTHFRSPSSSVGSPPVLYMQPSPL
UniProt Q99942: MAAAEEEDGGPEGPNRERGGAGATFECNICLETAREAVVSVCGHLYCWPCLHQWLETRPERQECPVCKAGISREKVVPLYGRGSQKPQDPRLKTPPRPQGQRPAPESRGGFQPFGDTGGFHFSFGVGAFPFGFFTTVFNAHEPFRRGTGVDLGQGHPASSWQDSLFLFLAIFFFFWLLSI
UniProt P10155: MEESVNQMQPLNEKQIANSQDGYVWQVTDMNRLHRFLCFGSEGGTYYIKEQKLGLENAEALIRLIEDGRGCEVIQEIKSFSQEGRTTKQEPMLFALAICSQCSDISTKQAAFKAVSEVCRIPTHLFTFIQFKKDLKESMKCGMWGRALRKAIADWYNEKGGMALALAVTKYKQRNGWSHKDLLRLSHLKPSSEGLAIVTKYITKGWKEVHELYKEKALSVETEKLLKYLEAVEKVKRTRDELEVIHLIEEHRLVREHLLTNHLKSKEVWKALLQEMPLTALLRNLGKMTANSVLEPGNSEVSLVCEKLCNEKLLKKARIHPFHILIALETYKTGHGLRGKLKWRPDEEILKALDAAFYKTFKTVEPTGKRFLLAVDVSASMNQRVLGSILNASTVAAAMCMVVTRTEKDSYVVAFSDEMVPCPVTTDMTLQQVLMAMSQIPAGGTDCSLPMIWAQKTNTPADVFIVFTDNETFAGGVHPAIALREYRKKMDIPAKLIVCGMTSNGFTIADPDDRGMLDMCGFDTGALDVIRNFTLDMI
UniProt P62070: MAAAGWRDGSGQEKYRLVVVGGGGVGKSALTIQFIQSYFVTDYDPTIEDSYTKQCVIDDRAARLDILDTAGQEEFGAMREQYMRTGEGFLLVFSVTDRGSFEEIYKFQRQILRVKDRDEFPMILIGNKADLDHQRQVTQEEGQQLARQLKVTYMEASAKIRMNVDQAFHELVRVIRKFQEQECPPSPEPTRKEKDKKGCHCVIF

How the values were obtained:
Assay in all cases: log2 fold change, soluble protein after heating vs DMSO (PISA); higher = thermal stabilisation; K562 cells, 10 uM, 30 min; active = over 0.2 and 3.5 SD of the protein, either way, in both replicates (recomputed)
[1] = compound: Cc1cccc(CC(=O)N2CCc3c2ccc(-c2cn(C)c4ncnc(N)c24)c3F)n1
How it was run: (§1)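 K562 cells at 2×10^6 cells/mL were treated with 10 μM compound for 30 min. Aliquots were heated for 3 min across 48°C-58°C, pooled, and extracted in PBS with 0.5% NP-40 at 4°C; soluble protein was the supernatant after 21,000xg for 90 min. Soluble protein was quantified by TMTpro 16plex LC-MS/MS with channel sums equalised, and reported as log2 fold change in thermal stability against DMSO controls, with values from duplicates.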

nilotinib = compound: Cc1cn(-c2cc(NC(=O)c3ccc(C)c(Nc4nccc(-c5cccnc5)n4)c3)cc(C(F)(F)F)c2)cn1 [nilotinib]
How it was run: as §1

[2] = compound: Cc1nc(Nc2n[nH]c3c2CN(C(=O)N[C@H](CN(C)C)c2ccccc2)C3(C)C)c2sccc2n1
How it was run: as §1

[3] = compound: Cc1ncc(-c2ccnc(Nc3ccc(S(C)(=O)=O)cc3)n2)n1C(C)C
How it was run: as §1

[4] = compound: Cn1cc(-c2ccc3nnc(C(F)(F)c4ccc5ncccc5c4)n3n2)cn1
How it was run: as §1

tipifarnib = compound: Cn1cncc1[C@@](N)(c1ccc(Cl)cc1)c1ccc2c(c1)c(-c1cccc(Cl)c1)cc(=O)n2C [tipifarnib]
How it was run: as §1

mubritinib = compound: FC(F)(F)c1ccc(/C=C/c2nc(COc3ccc(CCCCn4ccnn4)cc3)co2)cc1 [mubritinib]
How it was run: as §1

[5] = compound: Cn1cc(-c2ccc3c(c2)CCN3C(=O)Cc2cccc(C(F)(F)F)c2)c2c(N)ncnc21
How it was run: as §1

bafetinib = compound: Cc1ccc(NC(=O)c2ccc(CN3CC[C@H](N(C)C)C3)c(C(F)(F)F)c2)cc1Nc1nccc(-c2cncnc2)n1 [bafetinib]
How it was run: as §1

dasatinib = compound: Cc1nc(Nc2ncc(C(=O)Nc3c(C)cccc3Cl)s2)cc(N2CCN(CCO)CC2)n1 [dasatinib]
How it was run: as §1

Measured: log2 fold change

RNFT1 (UniProt Q5M7Z0)
inactive: [1] -0.112 | nilotinib -0.095 | [2] -0.064 | [3] -0.063 | [4] -0.248 | tipifarnib 0.129 | mubritinib 0.038

RPS6KB2 (UniProt Q9UBS0)
inactive: [5] 0.024 | mubritinib -0.205

RNF31 (UniProt Q96EP0)
inactive: [1] -0.084 | nilotinib -0.046 | [2] -0.231 | [3] 0.097

RPSA (UniProt F8WD59)
inactive: mubritinib -0.253

RREB1 isoform 2 (UniProt Q92766)
inactive: bafetinib -0.009 | [1] 0.051 | dasatinib -0.082 | [5] -0.019 | [4] -0.035 | tipifarnib 0.001 | mubritinib 0.056

RNF26 (UniProt Q9BY78)
inactive: bafetinib 0.083 | [1] 0.111 | [4] -0.011

RPL3L (UniProt Q92901)
inactive: bafetinib 0.589 | [1] -0.001 | nilotinib -0.06 | [2] 0.272 | dasatinib 0.31 | [3] -0.04 | [5] -0.455 | [4] -0.231 | tipifarnib 0.387 | mubritinib -0.422

ROGDI (UniProt Q9GZN7)
inactive: [1] 0.082 | [5] -0.055 | [4] 0.104

RRAGC (UniProt Q9HB90)
inactive: bafetinib -0.07 | [1] -0.054 | nilotinib -0.005 | [2] 0.022 | dasatinib 0.05 | [3] -0.021 | [5] 0.001 | [4] 0.05 | tipifarnib -0.027 | mubritinib 0.031

RPS15 (UniProt P62841)
inactive: bafetinib 0.087 | [1] -0.09 | nilotinib 0.033 | [2] 0.221 | dasatinib 0.133 | [3] -0.106 | [5] -0.194 | [4] -0.027 | tipifarnib 0.082 | mubritinib -0.044

RNF4 (UniProt P78317)
inactive: bafetinib 0.145 | nilotinib 0.047 | [2] -0.018 | [3] 0.027 | tipifarnib -0.245 | mubritinib -0.007

RRP1 (UniProt P56182)
inactive: [1] -0.112 | [4] 0.007

RPS20 isoform 2 (UniProt P60866)
inactive: bafetinib 0.178 | [1] -0.005 | nilotinib -0.006 | [2] 0.223 | dasatinib 0.05 | [3] -0.071 | [5] -0.078 | [4] -0.008 | tipifarnib 0.094 | mubritinib -0.059

RPE (UniProt Q96AT9)
inactive: bafetinib 0.015 | nilotinib 0.028 | [2] 0.228 | dasatinib 0.092 | [3] 0.033 | [5] 0.015 | [4] 0.095 | tipifarnib -0.076 | mubritinib 0.08

RPS6KA5 (UniProt O75582)
inactive: [4] -0.098 | tipifarnib -0.07 | mubritinib -0.171

RPP30 (UniProt Q5VU11)
inactive: bafetinib 0.074 | [1] 0.091 | nilotinib -0.101 | [2] -0.115 | dasatinib -0.045 | [3] -0.022 | [4] -0.013

RPUSD3 (UniProt Q6P087)
inactive: [1] 0.018 | nilotinib -0.231 | [2] 0.035 | [3] 0.024 | tipifarnib 0.051 | mubritinib 0.161

RPAIN isoform 8 (UniProt Q86UA6)
inactive: bafetinib -0.064 | dasatinib -0.043 | [5] -0.022 | [4] -0.142 | tipifarnib -0.042

RPL36AL (UniProt Q969Q0)
inactive: bafetinib 0.394 | [1] 0.015 | nilotinib 0.067 | [2] 0.121 | dasatinib 0.185 | [3] -0.047 | [5] -0.344 | [4] -0.163 | tipifarnib 0.12 | mubritinib -0.24

RPS7, A0A2R8Y623
inactive: bafetinib 0.308 | nilotinib -0.185 | [2] 0.117 | [3] 0.039 | [4] 0.192 | mubritinib 0.038

Quoted at random: 3 records from the list
RPAIN isoform 8 (UniProt Q86UA6)
inactive: bafetinib -0.064 | dasatinib -0.043 | [5] -0.022 | [4] -0.142 | tipifarnib -0.042

RPS7, A0A2R8Y623
inactive: bafetinib 0.308 | nilotinib -0.185 | [2] 0.117 | [3] 0.039 | [4] 0.192 | mubritinib 0.038

RPP30 (UniProt Q5VU11)
inactive: bafetinib 0.074 | [1] 0.091 | nilotinib -0.101 | [2] -0.115 | dasatinib -0.045 | [3] -0.022 | [4] -0.013

Next entries.

RPS19 (UniProt M0R2L9)
inactive: nilotinib 0.116 | [2] 0 | [3] -0.267 | tipifarnib -0.126 | mubritinib 0.229

RPAP2 (UniProt Q8IXW5)
inactive: [1] 0.056 | [5] 0 | [4] -0.203

RPRD2 (UniProt Q5VT52)
inactive: bafetinib 0.252 | [4] 0.095 | tipifarnib -0.006

RNMT isoform 2 (UniProt O43148)
inactive: bafetinib -0.002 | [1] -0.027 | nilotinib -0.024 | [2] 0.053 | dasatinib 0.076 | [3] 0.024 | [5] -0.035 | [4] -0.016 | tipifarnib 0.04 | mubritinib -0.021

RPRD1A (UniProt Q96P16)
inactive: [1] 0.017 | dasatinib 0.005 | [4] -0.118

RPUSD4 (UniProt Q96CM3)
inactive: [1] -0.027 | [5] -0.335 | [4] -0.053 | tipifarnib 0.181 | mubritinib -0.453

RPL11 (UniProt P62913)
inactive: bafetinib 0.455 | [1] 0.045 | nilotinib -0.005 | [2] 0.252 | dasatinib 0.175 | [3] -0.025 | [5] -0.462 | [4] -0.171 | tipifarnib 0.43 | mubritinib -0.266

RPLP0 (UniProt F8VWV4)
inactive: [5] 0.083

RRN3 (UniProt Q9NYV6)
inactive: [1] -0.065 | tipifarnib -0.082

ROS1 (UniProt P08922)
inactive: bafetinib 0.017 | [1] -0.192 | nilotinib -0.102 | [2] 0.03 | [3] -0.21 | [5] 0.059 | tipifarnib 0.068 | mubritinib 0.106

RNF5 (UniProt Q99942)
inactive: bafetinib -0.119 | [1] 0.057 | nilotinib -0.121 | [2] -0.003 | [3] 0 | [5] 0.024 | [4] -0.202 | tipifarnib -0.075 | mubritinib 0.012

RPL7L1 (UniProt Q6DKI1)
inactive: bafetinib -0.135 | [1] -0.03 | nilotinib 0.019 | [2] 0.058 | dasatinib 0.246 | [3] -0.092 | [4] -0.059

RO60 (UniProt P10155)
inactive: bafetinib -0.113 | [1] -0.064 | nilotinib 0.005 | [2] 0.027 | dasatinib 0.031 | [3] -0.021 | [5] -0.021 | [4] -0.006 | tipifarnib 0.003 | mubritinib 0

RPL10 (UniProt F8W7C6)
inactive: bafetinib 0.203 | [1] 0.067 | nilotinib -0.138 | [2] 0.094 | [3] -0.047 | [5] -0.262 | tipifarnib -0.035 | mubritinib -0.107

RNF40 (UniProt O75150)
inactive: bafetinib -0.162 | dasatinib -0.271 | [5] 0.149 | [4] -0.07 | mubritinib -0.302

RRAS2 isoform 4 (UniProt P62070)
inactive: bafetinib -0.05 | [1] -0.082 | nilotinib 0.111 | [2] -0.021 | dasatinib 0.066 | [3] 0.025 | [5] 0.062 | [4] -0.03 | tipifarnib 0.088 | mubritinib -0.025

RPS3 (UniProt E9PJN9)
inactive: [1] 0.076 | dasatinib -0.207 | [4] -0.159

RPS28 (UniProt P62857)
inactive: bafetinib 0.084 | [1] -0.023 | nilotinib 0.009 | [2] -0.011 | dasatinib 0.146 | [3] -0.037 | [5] 0.007 | [4] -0.03 | tipifarnib 0.06 | mubritinib -0.004

RPS3A (UniProt D6R9B6)
inactive: dasatinib 0.155
